About 210 (0.4%) of roughly 52,000 sequences were called active.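 Rule for the calls: active = gene whose silencing raises cell survival under the drug, median off-target-corrected z-score across its silencing RNAs 2 or more; inactive = the rest.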 This is one part of the list.

The experiment is described as follows: Resistance to Poly (ADP-Ribose) Polymerase inhibitor: Gene Identification via Genome-wide siRNA Screen. The following applies: mouse BRCA2 R2336H ES cells, olaparib, CellTiter-Glo viability; hits give high values. The procedure, abridged: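 Mouse BRCA2 R2336H ES cells were reverse-transfected with siRNA (20 nM final), treated at 48 h with 500 nM olaparib, and read by CellTiter-Glo after 72 h. Scores: MAD-based z per siRNA, median per gene, seed off-target correction.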
For orientation: Cellular ATP, detected with luciferase, serves as a proxy for viable cell number.
Take “GGCUCUACCUUAACCUAUATT against 1810020D17Rik”: the z-score is inactive: -1.01.

In the case of “CCCUAUAUGAAUAACUCAUTT against D930016N04Rik”, the z-score is inactive: 0.582. As to GCUCCACUCAAUUCAGUCCTT against Cd19, the z-score was inactive: -0.589. In the case of CGAGCUAACAGCAUUGCUGTT against Jub it was inactive: 0.886; in that of “GGACUCUGCUAGGAAGACATT against B230374F23Rik”, inactive: 0.642; in that of CGUGGUUGUUACCUCCACATT against LOC268885, inactive: 0.945. For GACCACCAGAAAGUUUCACTT against Lfng, the z-score was inactive: -0.0122.

Take GGCAUUCUUAUAAAGAAACTT against Ube2q: the z-score is inactive: 3.88. Consider GGAGAUCAUCGACCCAGUGTT against Tuba4, for which the z-score is inactive: -0.678.

Consider GGAGUGUUUUGCAGUUUUATT against Tm7sf4, for which the z-score is inactive: -0.125. In the case of GGCCAAAUUCUUCAGCAGATT against Rpl27a it was inactive: -2.82; in that of GGAUGAAGAUGGUUCGUCGTT against Aof1, inactive: 1.17. For the sequence “GCCAACCAGCAUUUUUGACTT against 2310010M24Rik”, the z-score is inactive: 0.994. For CCAUUGUCAAGCCAGACUATT against Emilin1 the value was inactive: -0.373; for GGAACAGUUUGCUUGGAGATT against Rps10, inactive: -3.24; for CCUAACAAAUGGUGGGAAATT against Nxph1, inactive: -1.16. As for GGACUCCUCCCAAGACGAATT against Avil, the z-score was inactive: -0.505.

For CGACUCAAUCAAUCUGAUUTT against Hook3, the z-score was inactive: 0.233. In the case of GGAAGAAAGUCCUCUUUGCTT against Slc22a4 it was inactive: -1.99; in that of GGCCCAGAAGGUUAUCAUCTT against Ptf1a, inactive: 0.85. In the case of GGACUUCUCCAUCCUGACATT against Col5a1, the z-score was inactive: 1.61. On to CCAAGGAUUGUAAAGAAACTT against Hunk, for which the z-score is inactive: -0.106. As for “GGAACAAAAUACAUUCAAGTT against D430014M15”, the z-score was inactive: 0.657. In the case of “GGUACAGGCAAUUAAACUUTT against 9030416H16Rik” it was inactive: -1.84; in that of GGGACAGAUUUUGAACUGATT against Cd2, inactive: -1.5.

For the sequence GGGUCAGUCCUGGUUUUAUTT against BC003251, the z-score is inactive: 0.727. As for GGUCACUAAAUCCUGUACATT against V1rc2, the z-score was inactive: -0.838. For GCUUAUCAGGAAAUACAGGTT against BC043098 the value was inactive: -0.61; for CCUUUAAGUACACUUGUGUTT against Oas1c, inactive: -0.132; for GGGACUGACGUAUAAAUACTT against Dnase2a, inactive: -0.685. On to GGGACACUACCCUGAUGAUTT against V1rh8, for which the z-score is inactive: 0.188. Consider GGUAACCCACUUCCUUCCUTT against Fgf4, for which the z-score is inactive: -1.66. As to GGCAUUGUAUUUAACACACTT against Aass, the z-score was inactive: -0.31.

Turning to GGUUCAACGACCUUCGAUUTT against Runx3, the z-score was inactive: 1.44. In the case of “GGCAAUGUACAGAUACUUGTT against A430089I19Rik” it was inactive: -1.57. In the case of CGUACCAGGAUUUUGAUAUTT against Adam17 it was inactive: -0.0986; in that of GCUCCAUCUACAAACAAUGTT against Gpr37l1, inactive: -0.822. In the case of GGACCAUGAGUUACCGCAUTT against Plaur it was inactive: 0.377; in that of GCAACUCUAUCACUAAACUTT against Il2ra, inactive: -0.563. Turning to GCAAAGUCUAAGUUCUAUGTT against Osbpl5, the z-score is inactive: -0.788. In the case of GCAAGACUGAAAAUCCUGATT against MGC117751 it was inactive: -0.12. For “GGCUCUGAUCUUGAACUAATT against 9030603L14Rik” the value was inactive: -0.534. As to “GGGAUCUACAUAUGAGGAATT against 1110007F12Rik”, the z-score was inactive: -1.09.

Turning to CGAUGGAAAACCUCACAUCTT against Oaz2, the z-score is inactive: 0.914. For the sequence GCAUGUUCUUUGUCACCUGTT against Htr6, the z-score was inactive: 0.89. In the case of GGAGAAGAAGAAAAAGUCATT against BC005537 it was inactive: 0.252. For GGCAGAAAAUUUUAACCAATT against Axot the value was inactive: -0.22. In the case of GGAGAUGCUAUAGAUGAAATT against Il20 it was inactive: 0.442; in that of “GCUGUAUAACGAGAUUGAATT against 1700113I22Rik”, inactive: -0.292. With “GGGACAAGUUGAAUAAAAUTT against 4930442L21Rik”, the z-score is inactive: 0.178. In the case of GGUUACCUAUUACAUCAUATT against Pcdhgb4 it was inactive: 0.5; in that of GCACUGGACAUUGUACACCTT against Caskin1, inactive: 1.7.

GGACAAGUUCAUAAAGAGATT against Cyp2r1: the z-score was inactive: -0.549. For UUUGCAUGUACAGAAUGCUTT against Olfr312 the value was inactive: 1.36; for GGAAGUACAAUGCAGAUUGTT against V2R2, inactive: -0.93; for CCUGAUCUUCUGUGAUAGCTT against Olfr881, inactive: 1.03. For GGUGUCAGAAGCAGUGUAUTT against Treml1 the value was inactive: -0.988.

GGCUGACCUUCUGUGCUGATT against Olfr876: the z-score is inactive: -0.147. Take GCUGGUCAAGGGUCUAGAGTT against Saa3: the z-score was inactive: -1.96. In the case of GGAGACAGCACAAGUCCUGTT against H2-M10.2 it was inactive: 0.292. In the case of CAUAGAGUGCCUGAUUUUATT against Olfr438 it was inactive: -0.238; in that of “CCCUGUGGGCCUUUAGUAUTT against 2900036K24Rik”, inactive: 0.05; in that of CCCAACAACCAACUAUUUUTT against Kcna1, inactive: -1.

Regarding GCGUGAUAGAGCUUUAUCUTT against Slc16a7, the z-score was inactive: 1.61. For GGCUGGCAUCACCAUCAAATT against Kit, the z-score was inactive: 1.85. As for CGUGGAUAAAGAUAACCCGTT against Sssca1, the z-score is inactive: 0.12. On to GGAGAUCUUCAAUAUGUUATT against Supt6h, for which the z-score is inactive: -0.396.

Take GGAGCACAGGAAAAUAUAUTT against Mdm2: the z-score was inactive: -1.97. With GGAGGCUCUCACCGUAAACTT against Ttc7, the z-score is inactive: 0.475. For GGAGCGUAGCAUUUGCAUATT against Gcnt2 the value was inactive: -0.051; for CGUUUAAAGACUAGCAAGATT against Map3k7ip1, inactive: -0.656; for GGGCAUAAUGGUUUUUAUGTT against Hist1h3c, inactive: -0.04.

For “GGUGAGAGGCAGCUCAAGATT against D330023I21Rik”, the z-score is inactive: -0.0209.

With GGACUGCUUACCUAAAAGUTT against Insig1, the z-score was inactive: -0.327. For GGCCCAUAAGUCCUUCACCTT against AI449705 the value was inactive: -0.171; for GCUGGGUCUAAACUGUGCCTT against Cpsf2, inactive: 0.154. GACUGUUUUACAUUCCACATT against Klra21: the z-score is inactive: -1.07.

With GCAUGCUUCGCGUAUGCAATT against Gpr151, the z-score was inactive: 0.745. Regarding “GGAGGACCAGUGCAUCUUUTT against 3230401K02Rik”, the z-score is inactive: 0.832. For GCGAUUUCGUCUUCUGUUGTT against Wdr5b the value was inactive: -0.522; for GGCCGUAAUAUCUCCUCCUTT against Krt1-13, inactive: 0.826; for GGUCCACAUAUCUGACUGATT against AY314008, inactive: -1.01. In the case of GGCAACAAGGUCCUUUAAGTT against Mllt3 it was inactive: -0.295; in that of GGGAAACUGGUACAGUACATT against Es1, inactive: -1.31; in that of GCUUACCCUGACUCCAAUUTT against Dhx33, inactive: 0.714. For “CCACAAGAUUGUUUCAGAATT against A530050P17Rik” the value was inactive: 1.62; for GGAGUUGAUUGAGGUAAAGTT against Mettl3, inactive: 1.09; for GCACAGACAUGAAGUACCGTT against Tcea3, inactive: 0.179. In the case of GCUGAGUUGACUCCUACUGTT against Mcpt1, the z-score was inactive: 1.31. As to GCCCACUUUGUUUAGUUAATT against Lancl1, the z-score is inactive: 0.147. In the case of “CCAUGAGUUCAGAUGAUGATT against 4921521J11Rik” it was inactive: -2.93; in that of GCUUAAUGCUAGGUUACAATT against Kng2, inactive: 0.072. In the case of GCAGCUGUCCGUAUAUCUUTT against Uxt it was inactive: -0.0551; in that of GGCCUGUAUUCUGCUCUGUTT against Olfr341, inactive: -1.43; in that of “GGCAGAUCUAUUUAUGGUATT against 4921510H08Rik”, inactive: 1.45. For “CGAAGAUUGCUUCACAGGCTT against 1700008E09Rik” the value was inactive: 0.133. As for CCCUGGACUAAGGAUCACCTT against Cops5, the z-score is inactive: -1.45. In the case of “GGGUAUCAAGUAUAUCUCUTT against C530030I18Rik” it was inactive: 0.85; in that of GGAGAAACGGAAGGAAAAGTT against Rpl13a, inactive: -3.42. As for GCAAUUGACCAGAUUUGUGTT against Npr1, the z-score is inactive: 0.419.

As for GCAUCGUGGAACCUAAAGATT against Rps3, the z-score was inactive: -3.02. “CCCAAUUAAUGAUCACCCATT against 2010305C02Rik”: the z-score was inactive: 1.84. For GGUGCUGACUGGUCAGAUGTT against Lass1 the value was inactive: 0.276; for GCACAAUAAUAAUGACACUTT against AI597479, inactive: -0.493.

The values above are taken from PubChem BioAssay AID1347423 (Functional Genomics Laboratory (NCATS/FGL), 2020).
